On the set-up of series [1]: method as in Fairlie group. The note with it: ref Fairlie group; cited from earlier work.
The nature of series [2]: CHI-IAM chromatography (immobilized artificial membrane). The series is classed as physicochemical. The note with it: IAM.PC.DD2 column, ammonium acetate buffer pH 7.4. The source says: With all peptides in hand we first set out to estimate their passive membrane permeability using the immobilized artificial membrane (IAM) chromatography technique. , An IAM column is packed with a reverse phase like material modified with phospholipids to mimic a cellular membrane. After analysis of a compound its retention time is compared to a set of calibration compounds to yield a CHI-IAM value. A higher value indicates a stronger membrane interaction, which can be correlated to passive membrane permeability.
CHI-IAM chromatography was carried out on an Agilent 1200 Series LC (Agilent Technologies, USA) equipped with a 4.6 mm × 100 mm to 150 mm IAM.PC.DD2 column from Regis Technologies, Inc., eluting at 1.5 mL/min, eluting over a gradient of 0% – 85% MeCN with a 50 mM ammonium acetate buffer adjusted to pH 7.4 over 4.75 min.

As to `CC[C@H](C)[C@@H]1NC(=O)[C@@H]2CCCN2C(=O)[C@H](Cc2ccccc2)NC(=O)[C@H](C(C)(C)C)NC(=O)c2csc(n2)[C@H]([C@@H](C)CC)NC(=O)[C@@H]2CCCN2C1=O` [SA-A2, Danamide F], the “bioavailability (F)” value in series [1] is on record as 51%. Moreover, the CHI-IAM in series [2] worked out at 45.23 ± 0.18.
